Counter-ions that a name gives are not always drawn. The list shows a part of the results. The calls rarely recur for the same compound in another form.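 Kinases, fused to nanoluciferase, were expressed in K562 cells; luminescence was measured every 4 h from 2 to 18 h as percent of control (DMSO = 100%, positive control = 0%). A time point is decreased if signal falls significantly (2 sigma). Hits were called by the authors by a rule that is not shown; the count of time points alone does not decide it.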
What was measured:
Assay in all cases: number of time points (of 5) at which kinase-Nluc abundance scored as decreased, DMSO-normalised (count); higher = more persistent destabilization
Conditions in all cases: K562; 2-18 h
[1] = target: CAMK2A (UniProt Q9UQM7)
[2] = target: CAMK2G (UniProt Q13555)
[3] = target: CDK10 (UniProt Q15131)
[4] = target: CDK2 (UniProt P24941)
[5] = target: CDK3 (UniProt Q00526)
[6] = target: CDK5 (UniProt Q00535)
[7] = target: CDK6 (UniProt Q00534)
[8] = target: CHEK2 (UniProt O96017)
[9] = target: CSF1R (UniProt P07333)
[10] = target: CSK (UniProt P41240)
[11] = target: CSNK1A1 (UniProt P48729)
[12] = target: CSNK1D (UniProt P48730)
[13] = target: DDR1 (UniProt Q08345)
[14] = target: DYRK1B (UniProt Q9Y463)
[15] = target: DYRK2 (UniProt Q92630)
[16] = target: EGFR (UniProt P00533)
[17] = target: EGFR_G719S (UniProt P00533)
[18] = target: EGFR_G719S_T790M (UniProt P00533)
[19] = target: EGFR_L718V (UniProt P00533)
[20] = target: EGFR_L858R (UniProt P00533)

By UniProt entry, the sequences of proteins in these tests, tags left out. Where a name states a change or a piece, a line headed by the entry shows the natural chain unless it says otherwise.
UniProt Q9UQM7, whole entry: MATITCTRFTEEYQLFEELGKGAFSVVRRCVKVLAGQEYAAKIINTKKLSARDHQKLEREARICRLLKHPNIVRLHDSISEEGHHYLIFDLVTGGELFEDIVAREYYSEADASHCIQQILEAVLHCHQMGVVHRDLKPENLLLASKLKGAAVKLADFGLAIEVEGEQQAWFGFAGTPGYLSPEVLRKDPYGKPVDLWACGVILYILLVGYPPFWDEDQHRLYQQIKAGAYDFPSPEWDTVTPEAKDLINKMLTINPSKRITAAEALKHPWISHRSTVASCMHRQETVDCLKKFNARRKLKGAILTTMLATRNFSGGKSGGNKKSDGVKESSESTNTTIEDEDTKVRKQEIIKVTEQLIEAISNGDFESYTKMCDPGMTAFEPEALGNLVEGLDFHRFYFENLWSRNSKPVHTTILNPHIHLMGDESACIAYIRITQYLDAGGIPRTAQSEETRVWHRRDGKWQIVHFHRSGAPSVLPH
UniProt Q13555: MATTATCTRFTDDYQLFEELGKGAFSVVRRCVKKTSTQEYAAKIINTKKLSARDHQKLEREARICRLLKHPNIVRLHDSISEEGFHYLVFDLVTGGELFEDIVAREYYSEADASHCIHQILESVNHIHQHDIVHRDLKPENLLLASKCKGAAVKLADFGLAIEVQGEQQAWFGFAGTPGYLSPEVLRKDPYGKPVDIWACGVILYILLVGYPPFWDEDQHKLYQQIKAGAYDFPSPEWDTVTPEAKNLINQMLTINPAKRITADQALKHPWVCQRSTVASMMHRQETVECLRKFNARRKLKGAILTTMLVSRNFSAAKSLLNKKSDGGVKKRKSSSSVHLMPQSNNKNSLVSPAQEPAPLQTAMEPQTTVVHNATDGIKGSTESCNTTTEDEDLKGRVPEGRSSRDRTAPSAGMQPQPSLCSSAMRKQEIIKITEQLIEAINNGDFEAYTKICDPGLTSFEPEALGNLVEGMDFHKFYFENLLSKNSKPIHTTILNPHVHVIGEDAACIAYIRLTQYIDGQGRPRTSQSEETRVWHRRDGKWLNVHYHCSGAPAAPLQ
UniProt Q15131: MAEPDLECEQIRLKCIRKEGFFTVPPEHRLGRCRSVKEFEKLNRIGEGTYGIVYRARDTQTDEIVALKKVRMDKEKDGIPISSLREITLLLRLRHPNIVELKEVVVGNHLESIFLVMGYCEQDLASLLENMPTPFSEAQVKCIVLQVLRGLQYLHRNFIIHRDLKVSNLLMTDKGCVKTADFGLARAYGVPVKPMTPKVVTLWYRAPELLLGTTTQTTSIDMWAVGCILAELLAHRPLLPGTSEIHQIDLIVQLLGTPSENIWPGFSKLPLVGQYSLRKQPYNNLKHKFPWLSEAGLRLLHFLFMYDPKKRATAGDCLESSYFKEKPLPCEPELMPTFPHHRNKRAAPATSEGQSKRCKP
UniProt Q00526: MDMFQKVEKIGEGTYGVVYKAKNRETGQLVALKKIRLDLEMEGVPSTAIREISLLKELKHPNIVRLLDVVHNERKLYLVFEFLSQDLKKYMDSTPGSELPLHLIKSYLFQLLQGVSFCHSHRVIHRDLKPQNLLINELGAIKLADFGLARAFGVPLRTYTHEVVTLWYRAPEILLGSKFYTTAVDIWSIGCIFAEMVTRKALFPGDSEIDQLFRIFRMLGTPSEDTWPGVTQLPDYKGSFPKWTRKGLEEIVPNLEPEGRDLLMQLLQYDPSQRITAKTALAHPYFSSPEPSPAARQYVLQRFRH
UniProt Q00535, whole entry, looked up: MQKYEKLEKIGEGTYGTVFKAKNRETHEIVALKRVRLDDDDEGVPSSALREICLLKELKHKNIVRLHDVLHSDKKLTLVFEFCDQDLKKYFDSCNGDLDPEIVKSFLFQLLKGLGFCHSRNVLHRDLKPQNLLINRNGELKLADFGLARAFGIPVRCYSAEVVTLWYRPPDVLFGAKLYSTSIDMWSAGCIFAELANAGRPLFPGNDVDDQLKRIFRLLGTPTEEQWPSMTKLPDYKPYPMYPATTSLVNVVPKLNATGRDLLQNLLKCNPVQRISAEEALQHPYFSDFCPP
UniProt Q00534, whole entry: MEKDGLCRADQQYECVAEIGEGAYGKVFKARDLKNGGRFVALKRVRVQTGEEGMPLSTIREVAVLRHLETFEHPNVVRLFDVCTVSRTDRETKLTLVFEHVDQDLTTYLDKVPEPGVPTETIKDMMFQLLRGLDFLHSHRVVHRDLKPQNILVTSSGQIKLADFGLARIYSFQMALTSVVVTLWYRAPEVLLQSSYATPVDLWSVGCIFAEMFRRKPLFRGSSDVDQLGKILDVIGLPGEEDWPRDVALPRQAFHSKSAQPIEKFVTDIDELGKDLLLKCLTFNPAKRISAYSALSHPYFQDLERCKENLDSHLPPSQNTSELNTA
UniProt O96017, whole entry: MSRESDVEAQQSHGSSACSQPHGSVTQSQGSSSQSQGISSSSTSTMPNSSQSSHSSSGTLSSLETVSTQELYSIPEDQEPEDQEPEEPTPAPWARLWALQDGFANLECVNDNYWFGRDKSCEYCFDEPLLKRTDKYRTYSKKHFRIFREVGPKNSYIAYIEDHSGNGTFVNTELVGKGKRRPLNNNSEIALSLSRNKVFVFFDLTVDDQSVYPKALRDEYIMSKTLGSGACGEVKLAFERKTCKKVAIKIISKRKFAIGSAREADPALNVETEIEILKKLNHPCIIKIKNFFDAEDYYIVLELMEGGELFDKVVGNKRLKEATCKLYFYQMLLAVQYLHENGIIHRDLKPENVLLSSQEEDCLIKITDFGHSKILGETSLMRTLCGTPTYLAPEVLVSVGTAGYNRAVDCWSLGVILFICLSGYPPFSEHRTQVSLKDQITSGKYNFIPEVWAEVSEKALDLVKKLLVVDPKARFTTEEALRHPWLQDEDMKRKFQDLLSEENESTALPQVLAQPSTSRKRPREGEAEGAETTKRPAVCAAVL
UniProt P41240: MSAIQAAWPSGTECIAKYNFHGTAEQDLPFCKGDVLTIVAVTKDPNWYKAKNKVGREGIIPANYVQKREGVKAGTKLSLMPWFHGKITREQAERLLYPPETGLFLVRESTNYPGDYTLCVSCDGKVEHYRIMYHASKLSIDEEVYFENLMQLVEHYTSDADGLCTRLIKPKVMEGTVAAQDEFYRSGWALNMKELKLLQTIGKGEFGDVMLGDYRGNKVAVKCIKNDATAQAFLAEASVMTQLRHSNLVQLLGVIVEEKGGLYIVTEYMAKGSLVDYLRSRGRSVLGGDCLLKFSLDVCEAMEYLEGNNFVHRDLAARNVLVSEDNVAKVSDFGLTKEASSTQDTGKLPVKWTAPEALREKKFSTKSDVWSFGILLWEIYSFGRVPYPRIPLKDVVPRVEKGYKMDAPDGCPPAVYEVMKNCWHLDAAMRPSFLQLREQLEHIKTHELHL
UniProt P48729: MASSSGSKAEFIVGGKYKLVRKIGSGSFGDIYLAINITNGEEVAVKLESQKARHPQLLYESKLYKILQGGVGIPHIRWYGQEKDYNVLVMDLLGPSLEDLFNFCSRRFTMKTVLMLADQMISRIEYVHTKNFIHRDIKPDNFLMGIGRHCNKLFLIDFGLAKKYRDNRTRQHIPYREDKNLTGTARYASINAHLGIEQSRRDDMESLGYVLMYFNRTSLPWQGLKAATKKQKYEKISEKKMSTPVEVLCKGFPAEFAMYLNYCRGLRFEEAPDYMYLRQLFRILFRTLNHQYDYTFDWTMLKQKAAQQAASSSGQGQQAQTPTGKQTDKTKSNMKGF
UniProt P48730: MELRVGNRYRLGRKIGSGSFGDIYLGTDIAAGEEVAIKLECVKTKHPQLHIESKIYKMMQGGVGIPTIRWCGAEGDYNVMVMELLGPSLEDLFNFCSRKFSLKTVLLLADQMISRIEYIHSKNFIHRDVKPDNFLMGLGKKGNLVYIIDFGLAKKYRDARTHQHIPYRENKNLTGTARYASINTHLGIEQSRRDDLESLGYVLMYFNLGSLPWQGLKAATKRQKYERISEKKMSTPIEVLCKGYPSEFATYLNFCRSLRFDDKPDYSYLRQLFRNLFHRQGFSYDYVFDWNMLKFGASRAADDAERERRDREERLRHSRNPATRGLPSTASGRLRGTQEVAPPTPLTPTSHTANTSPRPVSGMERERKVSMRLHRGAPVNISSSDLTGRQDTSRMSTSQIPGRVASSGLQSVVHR
UniProt Q08345: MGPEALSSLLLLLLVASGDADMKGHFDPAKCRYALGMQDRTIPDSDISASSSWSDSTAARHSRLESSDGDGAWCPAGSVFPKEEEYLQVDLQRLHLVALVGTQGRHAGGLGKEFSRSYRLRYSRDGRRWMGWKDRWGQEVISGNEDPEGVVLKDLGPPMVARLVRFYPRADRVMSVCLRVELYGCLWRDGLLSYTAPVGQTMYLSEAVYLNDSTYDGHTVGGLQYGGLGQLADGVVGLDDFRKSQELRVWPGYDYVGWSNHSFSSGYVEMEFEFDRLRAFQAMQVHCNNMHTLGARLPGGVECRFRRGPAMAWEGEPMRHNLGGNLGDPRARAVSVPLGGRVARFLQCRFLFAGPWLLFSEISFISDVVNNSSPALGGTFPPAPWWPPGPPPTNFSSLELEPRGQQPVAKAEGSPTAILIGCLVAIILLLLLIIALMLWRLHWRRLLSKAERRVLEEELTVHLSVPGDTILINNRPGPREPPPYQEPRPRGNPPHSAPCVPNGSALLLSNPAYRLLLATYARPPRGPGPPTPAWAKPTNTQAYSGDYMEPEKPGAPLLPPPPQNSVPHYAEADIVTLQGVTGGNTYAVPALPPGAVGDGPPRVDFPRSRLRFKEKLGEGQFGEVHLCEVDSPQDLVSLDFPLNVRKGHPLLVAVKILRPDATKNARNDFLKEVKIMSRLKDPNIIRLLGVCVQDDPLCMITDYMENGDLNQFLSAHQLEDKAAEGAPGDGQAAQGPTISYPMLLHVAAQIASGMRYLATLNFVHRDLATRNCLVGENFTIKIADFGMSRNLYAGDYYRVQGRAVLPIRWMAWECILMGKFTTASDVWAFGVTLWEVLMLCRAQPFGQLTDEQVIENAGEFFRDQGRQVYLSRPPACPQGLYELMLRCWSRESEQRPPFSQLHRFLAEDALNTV
UniProt Q9Y463, whole entry, looked up: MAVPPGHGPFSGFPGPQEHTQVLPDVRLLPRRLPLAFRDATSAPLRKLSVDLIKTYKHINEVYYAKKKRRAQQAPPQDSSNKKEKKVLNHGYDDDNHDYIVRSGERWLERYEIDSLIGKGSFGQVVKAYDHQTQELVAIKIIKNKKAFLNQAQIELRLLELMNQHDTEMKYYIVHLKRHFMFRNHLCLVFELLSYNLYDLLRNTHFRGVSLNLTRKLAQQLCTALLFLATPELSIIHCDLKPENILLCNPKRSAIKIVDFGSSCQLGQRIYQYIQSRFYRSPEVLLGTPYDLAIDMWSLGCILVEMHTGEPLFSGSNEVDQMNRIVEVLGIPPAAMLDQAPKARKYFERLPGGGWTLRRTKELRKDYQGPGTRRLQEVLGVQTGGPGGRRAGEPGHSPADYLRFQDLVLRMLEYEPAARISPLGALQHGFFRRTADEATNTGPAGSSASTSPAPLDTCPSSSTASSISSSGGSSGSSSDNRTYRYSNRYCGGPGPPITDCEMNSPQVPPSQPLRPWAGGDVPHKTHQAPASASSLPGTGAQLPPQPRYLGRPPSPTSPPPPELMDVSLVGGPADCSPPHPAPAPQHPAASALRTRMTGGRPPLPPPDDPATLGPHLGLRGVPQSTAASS
UniProt Q92630: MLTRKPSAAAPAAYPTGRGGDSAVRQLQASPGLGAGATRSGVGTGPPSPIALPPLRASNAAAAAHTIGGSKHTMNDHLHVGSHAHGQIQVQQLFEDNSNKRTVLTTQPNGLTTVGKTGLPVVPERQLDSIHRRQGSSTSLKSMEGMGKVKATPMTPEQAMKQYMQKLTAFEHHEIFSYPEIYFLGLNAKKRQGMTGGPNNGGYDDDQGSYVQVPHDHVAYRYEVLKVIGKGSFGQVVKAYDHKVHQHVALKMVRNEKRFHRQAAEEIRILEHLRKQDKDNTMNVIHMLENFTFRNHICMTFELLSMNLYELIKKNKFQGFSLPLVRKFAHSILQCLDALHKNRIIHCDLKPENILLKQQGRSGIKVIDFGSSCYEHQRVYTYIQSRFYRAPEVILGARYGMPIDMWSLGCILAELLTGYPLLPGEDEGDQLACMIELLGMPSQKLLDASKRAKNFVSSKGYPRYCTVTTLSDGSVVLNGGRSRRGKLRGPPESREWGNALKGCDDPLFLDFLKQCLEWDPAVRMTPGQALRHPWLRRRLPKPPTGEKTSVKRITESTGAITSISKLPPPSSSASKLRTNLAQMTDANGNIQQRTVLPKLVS

Measured: number of time points

COc1cc(OC)c(/C=C/S(=O)(=O)Cc2ccc(OC)c(NCC(=O)O)c2)c(OC)c1 [Rigosertib (sodium)] (10 µM)
2: [13] | [15]
3: [9]
1: [18] | [20]
0: all other assays above

CNS(=O)(=O)C[C@H]1CC[C@H](N(C)c2[nH]cnc3nccc2-3)CC1 [Oclacitinib (maleate)] (10 µM)
0: all assays above

Cc1cc(/C=C2\CC/C(=C\c3cc(C)c(O)c(C)c3)C2=O)cc(C)c1O [Pentagamavunon-1] (2.5 µM)
0: all assays above

COC(=O)c1cc2c(OC(C)C)cc(OC(C)C)cc2[nH]1 (2.5 µM)
0: all assays above

Cn1c(=O)c(Oc2ccc(F)cc2F)cc2cnc(NC(CCO)CCO)nc21 [Pamapimod] (10 µM)
0: all assays above

C[C@@]12CCc3occc3[C@H]1CC[C@@]13C[C@@H](CC[C@H]12)[C@@](O)(CO)C3 [Cafestol] (10 µM)
0: all assays above

COC(=O)[C@]1(C)CC[C@]2(C(=O)O[C@@H]3O[C@H](CO)[C@@H](O)[C@H](O)[C@H]3O)CC[C@]3(C)C(=CC[C@@H]4[C@@]5(C)C[C@H](O)[C@H](O[C@@H]6OC[C@@H](O[C@@H]7O[C@H](CO)[C@@H](O)[C@H](O)[C@H]7O)[C@H](O)[C@H]6O)[C@@](C)(CO)C5CC[C@]43C)[C@H]2C1 (stereo not given in full) [Esculentoside H] (10 µM)
0: all assays above

CNC(=O)c1ccc(-c2cnc3ncc(Cc4ccc5ncccc5c4)n3n2)cc1F [Capmatinib] (10 µM)
0: all assays above

COc1cc2nccc(Oc3ccc(NC(=O)Nc4ccc(F)cc4F)c(F)c3)c2cc1OC (10 µM)
2: [2]
3: [7] | [9] | [15]
1: [16] | [17]
0: all other assays above

Cc1occ2c1C(=O)c1c(O)ccc(O)c1C2 (2.5 µM)
0: all assays above

O=c1cc(-c2ccc(O)cc2)oc2cc(O)c(O)c(O)c12 [Scutellarein] (10 µM)
0: all assays above

CN(C)CCCn1cc(C2=C(c3c[nH]c4ccccc34)C(=O)NC2=O)c2ccccc21 [Bisindolylmaleimide I] (2.5 µM)
0: all assays above

CCc1nc(C(N)=O)c(Nc2ccc(N3CCC(N4CCN(C)CC4)CC3)c(OC)c2)nc1NC1CCC(OC)CC1 (stereo not given) [EML4-ALK kinase inhibitor 1] (2.5 µM)
0: all assays above

CNC(=O)c1c(C)oc2cc(Oc3ncnc4cc(OC)c(OC)cc34)ccc12 [Fruquintinib] (10 µM)
0: all assays above

O=C1NCCSc2c1sc1ccc(O)cc21 (2.5 µM)
0: all assays above

COc1ccc(COc2cc3oc(=O)c4cc(C(C)O)ccc4c3cc2OC)cc1 (stereo not given) [Palomid 529] (2.5 µM)
0: all assays above

CCN1C(C)(C)CC(Oc2ccc(C(=O)Nc3ccc(NC(=O)Nc4cc(C(C)(C)C)on4)cc3)nc2)CC1(C)C (10 µM)
0: all assays above

COc1c(OCCCN2CCOCC2)ccc2c3n(c(=NC(=O)c4cnc(N)nc4)nc12)CCN3 [Copanlisib (dihydrochloride)] (10 µM)
4: [9] | [13] | [15]
2: [2] | [14] | [16] | [17] | [18] | [19] | [20]
3: [8] | [11] | [12]
0: all other assays above

COc1ccc(C(=O)c2cn(C(C)C)c3ncnc(N)c23)cc1NC(=O)Nc1ccc(Cl)cc1Cl (10 µM)
4: [7]
2: [4] | [13]
0: all other assays above

NC(=O)c1cccc2c(N[C@H](CN3CCC3)c3ccc(Cl)c(C(F)(F)F)c3)ncnc12 (10 µM)
0: all assays above

CS(=O)(=O)N1CCN(Cc2cn3cc(-c4cnc(N)nc4)nc(N4CCOCC4)c3n2)CC1 (10 µM)
1: [7] | [13]
3: [17]
0: all other assays above

Nc1nc2c(ncn2COCCO)c(=O)[nH]1 [Acyclovir] (10 µM)
0: all assays above

C[C@@H]1CN(CC(=O)Nc2ccc3c(c2)Cc2cccc(-c4cc(=O)cc(N5CCOCC5)o4)c2S3)C[C@H](C)O1 (2.5 µM)
0: all assays above

Cn1cc(-c2ccc3nnc(Sc4ccc5nn(C)cc5c4)n3n2)cn1 [c-Met inhibitor 1] (10 µM)
0: all assays above

O=c1sn(-c2cccc3ccccc23)c(=O)n1Cc1ccccc1 [Tideglusib] (10 µM)
0: all assays above

C[C@@H](N)COc1ccc(-c2cnc3ccc(N[C@H](C)c4cccc(F)c4)nn23)cc1 [Taletrectinib] (2.5 µM)
0: all assays above

COc1cc(-c2cc(-c3cccc(O)c3)cnc2N)cc(OC)c1OC (2.5 µM)
1: [8] | [13]
3: [15]
0: all other assays above

COc1cccc(Nc2ncnn3ccc(CN4CC[C@@H](N)[C@H](O)C4)c23)c1 (2.5 µM)
3: [15]
2: [17]
1: [2] | [13]
0: all other assays above

O=C(NCc1cccc(O)c1)c1cc2cc(F)ccc2[nH]1 (10 µM)
0: all assays above

C=CCN(/C=C1/C(=O)O[C@H](COC)[C@@]2(C)C1=C(O)C(=O)C1=C2[C@H](OC(C)=O)C[C@]2(C)C(=O)CC[C@@H]12)CC=C [Sonolisib] (2.5 µM)
3: [13]
0: all other assays above

CN1CCN(c2ccc(NC(=O)c3ccc(C#N)o3)c(N3CCCCC3)c2)CC1 (10 µM)
0: all assays above

C=CC(=O)Nc1cc(C(=O)NC)cc(-c2n[nH]c3ccccc23)c1 (10 µM)
2: [8]
0: all other assays above

Part of the list above in order of SMILES length, falling:
C=CCN(/C=C1/C(=O)O[C@H](COC)[C@@]2(C)C1=C(O)C(=O)C1=C2[C@H](OC(C)=O)C[C@]2(C)C(=O)CC[C@@H]12)CC=C [Sonolisib] (2.5 µM)
3: [13]
0: all other assays above

CN1CCN(c2ccc(NC(=O)c3ccc(C#N)o3)c(N3CCCCC3)c2)CC1 (10 µM)
0: all assays above

C=CC(=O)Nc1cc(C(=O)NC)cc(-c2n[nH]c3ccccc23)c1 (10 µM)
2: [8]
0: all other assays above

Next part:

Cc1cccc(Cn2nc(C)c3c(NC(=O)c4csc5c(N)ncnc45)cccc32)n1 (10 µM)
0: all assays above

C[C@@H]1CN(Cc2cn[nH]c2-c2ccc(C#N)cc2)CCN1c1ccc(C(F)(F)F)cn1 (2.5 µM)
0: all assays above

Cn1cc(C2=C(c3c4n(c5ccccc35)CCC(CN)C4)C(=O)NC2=O)c2ccccc21 (stereo not given) [Bisindolylmaleimide X (hydrochloride)] (2.5 µM)
0: all assays above

C=C[C@H]1[C@H](O[C@@H]2O[C@H](CO)[C@@H](O)[C@H](O)[C@H]2O)OC=C(C(=O)OC)[C@H]1CCOC(=O)c1cc(O)c(O)c(O)c1 [Cornuside] (10 µM)
0: all assays above

Cc1cccc(-c2[nH]c(C(C)(C)C)nc2-c2ccc3c(c2)OCO3)n1 (2.5 µM)
0: all assays above

COc1cc(Nc2nc3ccccc3nc2NS(=O)(=O)c2ccc(NC(=O)c3ccc(C)c(OC)c3)cc2)cc(OC)c1 (10 µM)
1: [4]
0: all other assays above

CN(C)C(=O)c1cc2cnc(Nc3ccc(NC(=O)C4(C(=O)Nc5ccc(F)cc5)CC4)cc3)nc2n1C1CCCC1 (2 µM)
3: [4] | [5] | [13]
0: all other assays above

O=C1c2c(O)cc(O)cc2O[C@H](c2cc(O)c(O)c(O)c2)[C@H]1O [Dihydromyricetin] (10 µM)
0: all assays above

O=C(N/N=C/c1ccc([N+](=O)[O-])o1)c1ccc(O)cc1 [Nifuroxazide] (10 µM)
2: [3] | [11] | [13] | [18]
3: [2] | [8] | [9] | [15]
1: [14] | [17] | [20]
0: all other assays above

COc1ccc(C2CC(c3ccc(Cl)cc3)=NN2c2nc(-c3ccncc3)cs2)cc1 (stereo not given) [mTOR inhibitor-8] (10 µM)
0: all assays above

N#C/C(=C\c1ccc[nH]1)c1ccc(Cl)c(Cl)c1 (2.5 µM)
0: all assays above

O=C(c1ccc(NS(=O)(=O)c2cccc3cccnc23)cc1)N1CCN(CC2CC2)CC1 [Mitapivat] (10 µM)
0: all assays above

NC(=O)c1ccc2nc(-c3ccc(C4(N)CCC4)cc3)c(-c3ccccc3)n2n1 (10 µM)
0: all assays above

Cc1ccc(-n2c(-c3ccc(O)cc3O)n[nH]c2=O)cc1 (10 µM)
4: [8] | [13] | [17] | [18] | [20]
1: [6]
3: [16] | [19]
2: [7]
5: [2] | [9]
0: all other assays above

N#Cc1c[nH]c2ccc(-c3ccc(-c4c(O)cccc4O)cc3)cc12 (10 µM)
0: all assays above

— the supplement of paper PMC12823440, “Inhibitors supercharge kinase turnover through native proteolytic circuits” (Nature, 2025)
